# Assay results: publication PMC12064944
# No constants are given. Whether binding was seen depends on the method and setting. Binding seen in cells or lysates may run through a third protein. Some results given as binding are weak or reduced against the parent protein; the word gives no strength. Sequences can lack the tags named with a protein.
# T1: Mfn1-flag, Q8IWA4
# T1 chain: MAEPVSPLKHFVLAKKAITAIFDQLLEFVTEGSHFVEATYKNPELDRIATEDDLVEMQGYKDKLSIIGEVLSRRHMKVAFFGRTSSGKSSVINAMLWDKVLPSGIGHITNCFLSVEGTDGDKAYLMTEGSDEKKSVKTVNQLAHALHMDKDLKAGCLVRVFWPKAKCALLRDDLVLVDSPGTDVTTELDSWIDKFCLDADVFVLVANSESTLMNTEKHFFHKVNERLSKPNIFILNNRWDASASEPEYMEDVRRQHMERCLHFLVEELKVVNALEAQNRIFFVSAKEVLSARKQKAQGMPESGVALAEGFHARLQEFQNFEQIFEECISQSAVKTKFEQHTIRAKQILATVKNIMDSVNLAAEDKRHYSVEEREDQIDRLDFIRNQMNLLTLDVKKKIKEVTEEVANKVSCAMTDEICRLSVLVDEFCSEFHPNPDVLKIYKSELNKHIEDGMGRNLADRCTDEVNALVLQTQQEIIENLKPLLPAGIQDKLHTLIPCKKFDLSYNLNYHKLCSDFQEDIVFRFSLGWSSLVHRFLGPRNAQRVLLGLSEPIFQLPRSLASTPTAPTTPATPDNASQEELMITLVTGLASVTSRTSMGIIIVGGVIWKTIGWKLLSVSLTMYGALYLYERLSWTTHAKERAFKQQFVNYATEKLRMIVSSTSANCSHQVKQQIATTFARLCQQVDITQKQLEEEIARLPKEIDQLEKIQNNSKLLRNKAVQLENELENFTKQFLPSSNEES
# B1: Mfn2-myc, O95140 1-757 (protein)
# chain: MSLLFSRCNSIVTVKKNKRHMAEVNASPLKHFVTAKKKINGIFEQLGAYIQESATFLEDTYRNAELDPVTTEEQVLDVKGYLSKVRGISEVLARRHMKVAFFGRTSNGKSTVINAMLWDKVLPSGIGHTTNCFLRVEGTDGHEAFLLTEGSEEKRSAKTVNQLAHALHQDKQLHAGSLVSVMWPNSKCPLLKDDLVLMDSPGIDVTTELDSWIDKFCLDADVFVLVANSESTLMQTEKHFFHKVSERLSRPNIFILNNRWDASASEPEYMEEVRRQHMERCTSFLVDELGVVDRSQAGDRIFFVSAKEVLNARIQKAQGMPEGGGALAEGFQVRMFEFQNFERRFEECISQSAVKTKFEQHTVRAKQIAEAVRLIMDSLHMAAREQQVYCEEMREERQDRLKFIDKQLELLAQDYKLRIKQITEEVERQVSTAMAEEIRRLSVLVDDYQMDFHPSPVVLKVYKNELHRHIEEGLGRNMSDRCSTAITNSLQTMQQDMIDGLKPLLPVSVRSQIDMLVPRQCFSLNYDLNCDKLCADFQEDIEFHFSLGWTMLVNRFLGPKNSRRALMGYNDQVQRPIPLTPANPSMPPLPQGSLTQEEFMVSMVTGLASLTSRTSMGILVVGGVVWKAVGWRLIALSFGLYGLLYVYERLTWTTKAKERAFKRQFVEHASEKLQLVISYTGSNCSHQVQQELSGTFAHLCQQVDVTRENLEQEIAAMNKKIEVLDSLQSKAKLLRNKAGWLDSELNMFTHQYLQPSR
# Target: T1, Mfn1-flag, Q8IWA4
# Experiment: co-IP; HEK293 cells cotransfected with Mfn1-flag and Mfn2-myc with or without DAP3-flag for 24 h; lysates precipitated with anti-flag beads; western blot; also repeated with 200 µg purified recombinant DAP3 added to lysate containing 400 µg total protein
# Settings: remark: other sources report otherwise
binder,measurement,value
B1,binding,binds
